Source: PubChem BioAssay AID493246 (Drosophila RNAi Screening Center, 2011)
Assay: 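Identify essential fly genes by loss of cell viability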 (primary screen). Cells: Drosophila Kc and S2R+ cells. Reagent: long dsRNA against Drosophila genes. Read-out: 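Raw, unnormalised count of remaining cells in each well; per-plate z-scores of cell number underlie the calls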. Scale: Kc cell number and S2R+ cell number: higher = more cells remaining. Hit rule: 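Active when the per-plate z-score of cell number is 3 or more in the direction of fewer cells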.
The screen tested about 21,000 reagents; this is an unselected part of those that have a named target and a result. Of all reagents, 429 (2%) got an active call. 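Values are raw and not normalised between plates; calls rest on per-plate z-scores that were not deposited.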 Entries without a mark were called inactive. The numbers tell different reagents against one gene apart. A plus sign joins genes that one reagent is predicted to hit. The record does not give: the amount of reagent, the time to read-out.

For Skp2 + CG1103, the entry reads Kc cell number, rep 1 = 1.84e6; Kc cell number, rep 2 = 1.93e6; S2R+ cell number, rep 1 = 1.33e6; S2R+ cell number, rep 2 = 1.42e6.
After knock-down of PIG-S #1, the record shows Kc cell number, rep 1 = 1.54e6; Kc cell number, rep 2 = 1.64e6; S2R+ cell number, rep 1 = 1.19e6; S2R+ cell number, rep 2 = 1.37e6.
Depletion of PIG-S #2 gave: Kc cell number, rep 1 = 1.46e6; Kc cell number, rep 2 = 1.53e6; S2R+ cell number, rep 1 = 9.48e5; S2R+ cell number, rep 2 = 1.03e6.
Against PIG-S #3, the entry reads Kc cell number, rep 1 = 1.64e6; Kc cell number, rep 2 = 1.71e6; S2R+ cell number, rep 1 = 1.19e6; S2R+ cell number, rep 2 = 1.26e6.
With knock-down of CG40198, the screen gave Kc cell number, rep 1 = 1.55e6; Kc cell number, rep 2 = 1.69e6; S2R+ cell number, rep 1 = 1.03e6; S2R+ cell number, rep 2 = 1.17e6.
neur scored Kc cell number, rep 1 = 1.42e6; Kc cell number, rep 2 = 1.51e6; S2R+ cell number, rep 1 = 1.24e6; S2R+ cell number, rep 2 = 1.28e6.
For Gr33a, the entry reads Kc cell number, rep 1 = 1.53e6; Kc cell number, rep 2 = 1.63e6; S2R+ cell number, rep 1 = 1.22e6; S2R+ cell number, rep 2 = 1.32e6.
After knock-down of CG2225 #1, the record shows Kc cell number, rep 1 = 1.40e6; Kc cell number, rep 2 = 1.50e6; S2R+ cell number, rep 1 = 1.18e6; S2R+ cell number, rep 2 = 1.19e6.
Against CG2225 #2 the deposit lists Kc cell number, rep 1 = 1.50e6; Kc cell number, rep 2 = 1.59e6; S2R+ cell number, rep 1 = 1.32e6; S2R+ cell number, rep 2 = 3.16e5.
Silencing of Tango14 resulted in: Kc cell number, rep 1 = 1.71e6; Kc cell number, rep 2 = 1.71e6; S2R+ cell number, rep 1 = 1.11e6; S2R+ cell number, rep 2 = 1.29e6.

No new results follow: an excerpt of the list.
CG2225 #1 — Kc cell number, rep 1 = 1.40e6; Kc cell number, rep 2 = 1.50e6; S2R+ cell number, rep 1 = 1.18e6; S2R+ cell number, rep 2 = 1.19e6
CG2225 #2 — Kc cell number, rep 1 = 1.50e6; Kc cell number, rep 2 = 1.59e6; S2R+ cell number, rep 1 = 1.32e6; S2R+ cell number, rep 2 = 3.16e5
Tango14 — Kc cell number, rep 1 = 1.71e6; Kc cell number, rep 2 = 1.71e6; S2R+ cell number, rep 1 = 1.11e6; S2R+ cell number, rep 2 = 1.29e6

Further results follow.
For CG13751, the values are Kc cell number, rep 1 = 1.57e6; Kc cell number, rep 2 = 1.54e6; S2R+ cell number, rep 1 = 1.27e6; S2R+ cell number, rep 2 = 1.35e6.
CG1492 showed Kc cell number, rep 1 = 1.62e6; Kc cell number, rep 2 = 1.60e6; S2R+ cell number, rep 1 = 1.14e6; S2R+ cell number, rep 2 = 1.21e6.
Dtwd2 + Obp84a showed Kc cell number, rep 1 = 1.67e6; Kc cell number, rep 2 = 1.91e6; S2R+ cell number, rep 1 = 1.25e6; S2R+ cell number, rep 2 = 1.41e6.
Depletion of Vha14-1 gave: Kc cell number, rep 1 = 1.53e6; Kc cell number, rep 2 = 1.62e6; S2R+ cell number, rep 1 = 1.24e6; S2R+ cell number, rep 2 = 1.42e6.
CG6785 gave Kc cell number, rep 1 = 1.30e6; Kc cell number, rep 2 = 1.38e6; S2R+ cell number, rep 1 = 1.06e6; S2R+ cell number, rep 2 = 1.15e6.
Knock-down of Oseg4 came out at: Kc cell number, rep 1 = 1.59e6; Kc cell number, rep 2 = 1.71e6; S2R+ cell number, rep 1 = 1.29e6; S2R+ cell number, rep 2 = 1.32e6.
Against CG42342 #1, the values are Kc cell number, rep 1 = 1.42e6; Kc cell number, rep 2 = 1.52e6; S2R+ cell number, rep 1 = 1.03e6; S2R+ cell number, rep 2 = 1.14e6.
CG42342 #2 showed Kc cell number, rep 1 = 1.43e6; Kc cell number, rep 2 = 1.51e6; S2R+ cell number, rep 1 = 1.00e6; S2R+ cell number, rep 2 = 1.11e6.
CG42342 #3 showed Kc cell number, rep 1 = 1.44e6; Kc cell number, rep 2 = 1.46e6; S2R+ cell number, rep 1 = 9.99e5; S2R+ cell number, rep 2 = 1.21e6.
Silencing of CG42342 #4 gave: Kc cell number, rep 1 = 1.51e6; Kc cell number, rep 2 = 1.52e6; S2R+ cell number, rep 1 = 1.07e6; S2R+ cell number, rep 2 = 1.24e6.
With knock-down of Ubc2 #1, the screen gave Kc cell number, rep 1 = 1.55e6; Kc cell number, rep 2 = 1.61e6; S2R+ cell number, rep 1 = 1.04e6; S2R+ cell number, rep 2 = 1.24e6.
Depletion of Ubc2 #2 gave: Kc cell number, rep 1 = 1.58e6; Kc cell number, rep 2 = 1.57e6; S2R+ cell number, rep 1 = 1.08e6; S2R+ cell number, rep 2 = 1.22e6.
